PubChem BioAssay AID330 (DTP/NCI, 2004)
The list does not hold the whole screen: it is rich in T/C values a quarter to a half above the control, in often repeated tests (any T/C) and in doses without a T/C. Further doses and runs are listed elsewhere. T/C: endpoint of the treated group in % of that of the vehicle group. Some entries give survivors of the animals treated and no T/C: the source holds a T/C of zero for them, seemingly a mark for toxic or unscored doses. Some survivor counts are full or nearly so, which does not show that the dose was tolerated: the source hardly ever lists a survival T/C far under the control, and the zero likely stands for such cases as well. Survivors were counted at the toxicity check, usually on the fifth day, unless a day is given; later deaths do not show. Schedules are NCI's codes, taken here to give the interval after Q, in days (D) or hours (H), and the number of doses after X. For survival time, this PubChem deposit counts one and a half times the control or more as active, and values a quarter to a half above the control carry no call in these data; other NCI protocols may use other cut-offs. Some T/C values carry the count of animals alive at the toxicity check (mostly the fifth day); where none is given, no animal had died by that day.

System: P388 leukemia ip, CD2F1 mice, survival T/C
Experiment: NCI In Vivo Anticancer Drug Screen. Data for tumor model P388 Leukemia (intraperitoneal) in CD2F1 (CDF1) mice
Details: T/C endpoint: median survival time, higher T/C = longer survival
[1] = dose: 400.0 mg/kg/injection, schedule: Q04DX003 (ip), vehicle: saline
[2] = dose: 200.0 mg/kg/injection, schedule: Q01DX009 (ip), vehicle: saline with Tween-80
[3] = dose: 400.0 mg/kg/injection, schedule: Q01DX009 (ip), vehicle: saline with Tween-80
[4] = dose: 25.0 mg/kg/injection, schedule: Q01DX009 (ip), vehicle: saline
[5] = dose: 50.0 mg/kg/injection, schedule: Q01DX009 (ip), vehicle: saline
[6] = dose: 25.0 mg/kg/injection, schedule: Q01DX009 (ip), vehicle: saline with Tween-80
[7] = dose: 200.0 mg/kg/injection, schedule: Q01DX001 (ip), vehicle: Klucel (hydroxypropylcellulose) (HPC)
[8] = dose: 400.0 mg/kg/injection, schedule: Q01DX001 (ip), vehicle: Klucel (hydroxypropylcellulose) (HPC)
[9] = dose: 200.0 mg/kg/injection, schedule: Q01DX009 (ip), vehicle: Klucel (hydroxypropylcellulose) (HPC)
[10] = dose: 25.0 mg/kg/injection, schedule: Q01DX005 (ip), vehicle: Klucel (hydroxypropylcellulose) (HPC)
[11] = dose: 50.0 mg/kg/injection, schedule: Q01DX005 (ip), vehicle: Klucel (hydroxypropylcellulose) (HPC)
[12] = dose: 200.0 mg/kg/injection, schedule: Q01DX005 (ip), vehicle: Klucel (hydroxypropylcellulose) (HPC)
[13] = dose: 100.0 mg/kg/injection, schedule: Q01DX005 (ip), vehicle: Klucel (hydroxypropylcellulose) (HPC)

For `COc1cccc2c(NCCCCCCCCNc3c4ccccc4nc4c(OC)cccc34)c3ccccc3nc12`, the T/C (dose: 0.63 mg/kg/injection, schedule: Q01DX009 (ip), vehicle: other) was 136 % of control, the T/C (dose: 1.25 mg/kg/injection, schedule: Q01DX009 (ip), vehicle: other) was 144 % of control and the T/C (dose: 2.5 mg/kg/injection, schedule: Q01DX009 (ip), vehicle: other) was 145 % of control. The T/C (dose: 3.75 mg/kg/injection, schedule: Q01DX009 (ip), vehicle: other) was 149 % of control, the T/C (dose: 7.5 mg/kg/injection, schedule: Q01DX009 (ip), vehicle: other) was 149 % of control and the survivor count (dose: 10.0 mg/kg/injection, schedule: Q01DX009 (ip), vehicle: other) was 6 of 6. The survivor count (dose: 15.0 mg/kg/injection, schedule: Q01DX009 (ip), vehicle: other) was 6 of 6, the survivor count (dose: 20.0 mg/kg/injection, schedule: Q01DX009 (ip), vehicle: lactic acid) was 0 of 6 and the survivor count (dose: 20.0 mg/kg/injection, schedule: Q01DX009 (ip), vehicle: other) was 4 of 6.

With `Cn1c2nc(-[n+]3ccc(-c4ccccc4)cc3)nc-2c([O-])n(C)c1=O` the survivor count [1] was 6 of 6.

`O=C1NC(=O)C(=Cc2cc3c(cc2Br)OCO3)C(=O)N1` was tested, and the T/C [2] was 125 % of control, the survivor count [2] was 4 of 6 and the survivor count (dose: 300.0 mg/kg/injection, schedule: Q01DX009 (ip), vehicle: saline with Tween-80) was 2 of 6. The survivor count (dose: 400.0 mg/kg/injection, schedule: Q01DX009 (ip), vehicle: Klucel (hydroxypropylcellulose) (HPC)) was 4 of 6 and the survivor count [3] was 0 of 6.

With `O=C(N/N=C\c1cccc2ccccc12)C(=O)N/N=C/c1cccc2ccccc12` the survivor count (dose: 50.0 mg/kg/injection, schedule: Q01DX005 (ip), vehicle: saline with Tween-80) was 6 of 6.

In the case of `CN(N=O)P(=O)(Nc1ccccc1)Nc1ccccc1`, the survivor count (dose: 12.5 mg/kg/injection, schedule: Q01DX009 (ip), vehicle: other) is reported as 6 of 6.

`COc1ccc(C(CC(=O)O)CC(=O)N(CCCl)CCCl)cc1` (centres undefined) was tested, and the T/C (dose: 100.0 mg/kg/injection, schedule: Q01DX001 (ip), vehicle: suspension in saline) was 146 % of control, the T/C (dose: 200.0 mg/kg/injection, schedule: Q01DX001 (ip), vehicle: suspension in saline) was 140 % of control and the survivor count (dose: 400.0 mg/kg/injection, schedule: Q01DX001 (ip), vehicle: suspension in saline) was 0 of 6.

With `NCC(=O)O.[Cl-].[Cl-].[Cl-].[Cl-].[Pt+2]` the T/C [4] was 140 % of control [5 of 6 alive], the T/C (dose: 33.0 mg/kg/injection, schedule: Q01DX009 (ip), vehicle: saline) was 126 % of control and the T/C [5] was 138 % of control [5 of 6 alive]. The survivor count [5] was 2 of 6, the survivor count (dose: 75.0 mg/kg/injection, schedule: Q01DX009 (ip), vehicle: saline) was 0 of 6 and the survivor count (dose: 100.0 mg/kg/injection, schedule: Q01DX009 (ip), vehicle: saline) was 2 of 6. The survivor count (dose: 200.0 mg/kg/injection, schedule: Q01DX009 (ip), vehicle: saline) was 0 of 6.

`O=[N+]([O-])c1cc([N+](=O)[O-])c(Cl)s1` was tested, and the survivor count [6] was 4 of 6.

In the case of `CCOC(=O)/N=[N+](\[O-])c1ccc(Br)cc1`, the survivor count (dose: 100.0 mg/kg/injection, schedule: Q01DX001 (ip), vehicle: Klucel (hydroxypropylcellulose) (HPC)) is reported as 2 of 6, the survivor count [7] is reported as 0 of 6 and the survivor count [8] is reported as 1 of 6.

In the case of `CN(C)CCCN1c2ccccc2Sc2ccc(C(F)(F)F)cc21`, the T/C (dose: 16.5 mg/kg/injection, schedule: Q01DX009 (ip), vehicle: saline) is reported as 127 % of control [5 of 6 alive], the T/C [6] is reported as 128 % of control and the survivor count [4] is reported as 4 of 6. The survivor count (dose: 37.0 mg/kg/injection, schedule: Q01DX009 (ip), vehicle: saline) was 4 of 6 and the survivor count (dose: 50.0 mg/kg/injection, schedule: Q01DX009 (ip), vehicle: saline with Tween-80) was 2 of 6.

For `N#CCCN(CCCN1CCOCC1)CN1C(=O)c2ccccc2C1=O`, the survivor count [9] was 1 of 6.

`Cc1cc(=O)n(-c2cccc3ccccc23)c(C)c1C(=O)O` was tested, and the survivor count (dose: 200.0 mg/kg/injection, schedule: Q01DX005 (ip), vehicle: saline with Tween-80) was 4 of 5.

With `Cn1c2ccccc2c2cc3c(cc21)C(=O)OC3=O` the survivor count [10] was 5 of 5, the survivor count [11] was 5 of 5 and the survivor count [12] was 3 of 5.

For `CC(=O)n1c(Cl)c(/C=N/Nc2ccccc2[N+](=O)[O-])c2ccccc21`, the survivor count [7] was 5 of 6 and the survivor count [8] was 6 of 6.

With `[Cl][Co][Cl].[O-][n+]1c2ccccc2nc2ccccc21` the T/C (dose: 100.0 mg/kg/injection, schedule: Q04DX003 (ip), vehicle: saline with Tween-80) was 126 % of control [5 of 6 alive], the survivor count (dose: 200.0 mg/kg/injection, schedule: Q04DX003 (ip), vehicle: saline with Tween-80) was 0 of 6 and the survivor count (dose: 400.0 mg/kg/injection, schedule: Q04DX003 (ip), vehicle: saline with Tween-80) was 0 of 6.

In the case of `CSC(=S)N/N=C\C(O)C(O)C(O)C(O)CO` (centres undefined), the survivor count (dose: 100.0 mg/kg/injection, schedule: Q04DX003 (ip), vehicle: saline) is reported as 0 of 6, the survivor count (dose: 200.0 mg/kg/injection, schedule: Q04DX003 (ip), vehicle: saline) is reported as 0 of 6 and the survivor count [1] is reported as 0 of 6.

With `O=C(C(Br)C(Br)c1ccccc1)N1CCOCC1` (centres undefined) the T/C [2] was 127 % of control and the T/C [3] was 140 % of control.

`O=C(O)C(Cc1ccc([N+](=O)[O-])cc1)NCc1ccco1` (centres undefined) was tested, and the survivor count [2] was 3 of 6.

With `CCCCCCC(/C=C/c1ccc(N(C)C)cc1)=N\O` the survivor count [3] was 6 of 6.

`CCOC(=O)CC(=O)C(C)(OCC)OCC` was tested, and the T/C [5] was 134 % of control.

For `C=C(OP(=O)(OC)OC)Sc1ccccc1C`, the survivor count (dose: 3.0 mg/kg/injection, schedule: Q01DX005 (ip), vehicle: Klucel (hydroxypropylcellulose) (HPC)) was 0 of 6, the survivor count (dose: 3.12 mg/kg/injection, schedule: Q01DX005 (ip), vehicle: Klucel (hydroxypropylcellulose) (HPC)) was 0 of 6 and the survivor count (dose: 6.25 mg/kg/injection, schedule: Q01DX005 (ip), vehicle: Klucel (hydroxypropylcellulose) (HPC)) was 0 of 6. For the same compound, the survivor count (dose: 12.5 mg/kg/injection, schedule: Q01DX005 (ip), vehicle: Klucel (hydroxypropylcellulose) (HPC)) was 0 of 6, the survivor count [10] was 0 of 6 and the survivor count [11] was 0 of 6. The T/C (dose: 50.0 mg/kg/injection, schedule: Q01DX009 (ip), vehicle: Klucel (hydroxypropylcellulose) (HPC)) was 137 % of control, the survivor count [13] was 0 of 6 and the survivor count (dose: 100.0 mg/kg/injection, schedule: Q01DX009 (ip), vehicle: Klucel (hydroxypropylcellulose) (HPC)) was 5 of 6. The survivor count [12] was 0 of 6 and the survivor count [9] was 6 of 6.

With `C1COCCOCCOCCOCCO1.[Br][Sn]([Br])([Br])[Br]` the survivor count (dose: 60.0 mg/kg/injection, schedule: Q01DX005 (ip), vehicle: Klucel (hydroxypropylcellulose) (HPC)) was 6 of 6, the survivor count (dose: 120.0 mg/kg/injection, schedule: Q01DX005 (ip), vehicle: Klucel (hydroxypropylcellulose) (HPC)) was 6 of 6 and the survivor count (dose: 240.0 mg/kg/injection, schedule: Q01DX005 (ip), vehicle: Klucel (hydroxypropylcellulose) (HPC)) was 4 of 6.

In the case of `CS(=O)(=O)c1ncnc2nc[nH]c12`, the survivor count [11] is reported as 0 of 6, the survivor count [13] is reported as 0 of 6 and the survivor count [12] is reported as 0 of 6.

For `C/C(=C\c1cc(Cl)ccc1OCC(=O)O)[N+](=O)[O-]`, the survivor count (dose: 200.0 mg/kg/injection, schedule: Q01DX001 (ip), vehicle: saline with Tween-80) was 3 of 6 and the survivor count (dose: 400.0 mg/kg/injection, schedule: Q01DX001 (ip), vehicle: saline with Tween-80) was 0 of 6.

In the case of `CC(C)(C)OC(=O)NCC(=O)NC(CSC(c1ccccc1)c1ccccc1)C(=O)NCC(=O)O` (centres undefined), the survivor count [12] is reported as 5 of 6.
